Results published in paper PMC8093973.
No constants are given. Whether binding was seen depends on the method and setting. Binding seen in cells or lysates may run through a third protein. Some entries that bind do so weakly or less than the wild type.

Amino acid sequences for entries named in this document (tags omitted). A change or cut given only in a name is not applied to a line headed by its entry. Residues count along the entry.
UniProt Q9Y6G5: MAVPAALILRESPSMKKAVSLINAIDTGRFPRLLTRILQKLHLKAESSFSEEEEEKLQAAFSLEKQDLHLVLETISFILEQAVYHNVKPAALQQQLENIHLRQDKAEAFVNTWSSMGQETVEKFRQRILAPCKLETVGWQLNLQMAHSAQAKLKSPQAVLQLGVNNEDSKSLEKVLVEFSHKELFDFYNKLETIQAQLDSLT
N-terminal of COMMD10 (amino acids 1-132): residues 1-132 of Q9Y6G5
UniProt Q04206: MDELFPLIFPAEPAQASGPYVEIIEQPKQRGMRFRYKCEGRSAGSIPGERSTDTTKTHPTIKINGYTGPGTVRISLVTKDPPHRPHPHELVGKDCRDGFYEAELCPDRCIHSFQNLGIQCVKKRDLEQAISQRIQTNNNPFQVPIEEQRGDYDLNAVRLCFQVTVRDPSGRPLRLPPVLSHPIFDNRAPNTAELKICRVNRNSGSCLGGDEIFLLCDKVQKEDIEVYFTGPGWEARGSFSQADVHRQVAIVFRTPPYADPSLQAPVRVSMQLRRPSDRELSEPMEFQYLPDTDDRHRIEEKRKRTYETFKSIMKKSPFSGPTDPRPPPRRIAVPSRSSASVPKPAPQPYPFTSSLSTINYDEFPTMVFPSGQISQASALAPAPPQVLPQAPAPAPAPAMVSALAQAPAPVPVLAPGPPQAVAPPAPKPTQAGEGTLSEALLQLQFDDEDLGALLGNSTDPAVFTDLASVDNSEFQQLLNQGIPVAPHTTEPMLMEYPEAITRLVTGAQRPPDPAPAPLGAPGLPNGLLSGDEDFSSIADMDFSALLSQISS

Assays:
[1] = target: COMMD10 (construct of the GST pull-down with p65 truncations, Figure 3F) (UniProt Q9Y6G5); assay: pull-down; GST pull-down with truncations of COMMD10 (Figure 3E) and of p65 (Figure 3F); which partner carried GST is not told
[2] = target: N-terminal of COMMD10 (amino acids 1-132) (UniProt Q9Y6G5); assay: as above
[3] = target: COMMD10 (copper metabolism MURR1 domain-containing 10), endogenous (human (endogenous in HepG2)) (UniProt Q9Y6G5); assay: co-IP; endogenous COMMD10 immunoprecipitated from HepG2 cell lysates, NF-κB subunits blotted

| binding [1] | binding [2] | binding [3] | Substance |
| --- | --- | --- | --- |
| binds |  |  | truncated mutant p65 (amino acids 1-305), Rel homology domain (from UniProt Q04206 1-305) (domain or fragment) |
| binds | binds |  | wild type p65 (construct of the GST pull-down) (from UniProt Q04206 1-551) |
|  |  | binds | NF-κB p65, endogenous (from UniProt Q04206 1-551) |
